The list shows a part of the results.

The test addresses T1, OsSMF1 (Oryza sativa, UniProt Q6ZLB0 1-436).
T1 sequence: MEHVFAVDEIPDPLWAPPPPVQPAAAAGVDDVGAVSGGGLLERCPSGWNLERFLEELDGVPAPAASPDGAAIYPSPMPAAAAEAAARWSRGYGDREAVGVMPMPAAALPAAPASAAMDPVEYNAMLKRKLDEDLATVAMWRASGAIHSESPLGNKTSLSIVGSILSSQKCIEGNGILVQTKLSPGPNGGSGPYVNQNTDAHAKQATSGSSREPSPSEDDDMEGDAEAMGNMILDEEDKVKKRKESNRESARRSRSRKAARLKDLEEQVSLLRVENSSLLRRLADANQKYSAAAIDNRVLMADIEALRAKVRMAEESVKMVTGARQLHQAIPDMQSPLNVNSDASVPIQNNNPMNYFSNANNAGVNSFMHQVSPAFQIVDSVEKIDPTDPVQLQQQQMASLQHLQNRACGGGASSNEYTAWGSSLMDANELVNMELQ
Briefly: protein-binding microarray (RPBM); PBS, 2% BSA, 51.3 ng/ul salmon testes DNA, 50 uM zinc acetate, 200 nM TF, 25 C, 1 h; high values mean tight binding. As to conditions: protein: recombinant; tags: N-terminal polyhistidine and DsRed monomer fusion (pET32a); chain copies: 2; label: CyDye5-dUTP incorporated in the synthesized complementary strand; 3' TTTTT single-stranded linker to array surface; dsDNA, one strand shown. The method, boiled down:
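Using Ni–NTA, transcription factors fused N-terminally to polyhistidine and DsRed were purified after expression in E. coli BL21-CodonPlus. These were incubated at 200 nM with a blocked, double-stranded custom Agilent array for 1 h at 25 °C in a buffer containing 50 µM zinc acetate, and the array was washed. The binding signal is per-feature fluorescence intensity (arbitrary units) on an Axon 4000B scanner.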
Consider “GCCACCACCTGCCTCACTGCCACGTGGAGCCCGCACCACCCGGAGTCACCTAGTGCAG”, for which the binding signal is 18000 fluorescence intensity (a.u.).

In the case of “ATGTTTTGAGCACCAATCACACACCAATAACGCCAACGTACGGAGTCACCTAGTGCAG”, the binding signal is 34000 fluorescence intensity (a.u.).

As for “ATAGTTAAATATTTGGAGTATCATTTTAGCAAACACACGACGGAGTCACCTAGTGCAG”, the binding signal is 3970 fluorescence intensity (a.u.).

Turning to “TCCTCCCAAAGATAATTCAGCTGATGATATTTCCATATCTCGGAGTCACCTAGTGCAG”, the binding signal was 3210 fluorescence intensity (a.u.).

Take “CATAACATACTTGATGCGAGTTACTGCTTAGTCACAAAACCGGAGTCACCTAGTGCAG”: the binding signal is 4210 fluorescence intensity (a.u.).

With “ACAGGTGGAAGCGGCAGCCGGTCCGAAGGTCTCGGGACCACGGAGTCACCTAGTGCAG”, the binding signal was 3310 fluorescence intensity (a.u.).

In the case of “GTGTGAAACTCATACAAATATAAAATTACTGAACTACCGTCGGAGTCACCTAGTGCAG”, the binding signal is 49600 fluorescence intensity (a.u.).

On to “GAACATCGCGCCGTCCACGTGGACAGCCTCGGACAAGGTGCGGAGTCACCTAGTGCAG”, for which the binding signal was 9050 fluorescence intensity (a.u.).

Regarding “ATGCACATACCTAAGAATACCTGTTTGTGACATCATGCGACGGAGTCACCTAGTGCAG”, the binding signal was 4790 fluorescence intensity (a.u.).

For the sequence “ATTAAATGGAATTACTGATAGATGAGGTGTGCTGATAGAACGGAGTCACCTAGTGCAG”, the binding signal is 5840 fluorescence intensity (a.u.).

With “AATCTATGTGACGTAGCATCCTACGAGAGAGGCGTGGCGTCGGAGTCACCTAGTGCAG”, the binding signal was 9260 fluorescence intensity (a.u.).

For “TCATTGCCATCACATTGTAGATCTTCAATTGCGTACTTGTCGGAGTCACCTAGTGCAG”, the binding signal is 3690 fluorescence intensity (a.u.).

As to “ATCAAAATAGATTAAAGTTTAGTTTTAACGAAACTAGTTTCGGAGTCACCTAGTGCAG”, the binding signal was 3180 fluorescence intensity (a.u.).

Take “ACATAAGAAGAAGAAGAAATGAATGTGAGTTGGCATTTACCGGAGTCACCTAGTGCAG”: the binding signal was 4420 fluorescence intensity (a.u.).

On to “ATGATGATGATCCTGATCCTGATCTTCCTCCTCGATCGACCGGAGTCACCTAGTGCAG”, for which the binding signal is 42700 fluorescence intensity (a.u.).

“ATGTGAGTTCAAATTCGTATTTCTAGAATGTGTCATATTTCGGAGTCACCTAGTGCAG”: the binding signal was 4360 fluorescence intensity (a.u.).

On to “TTGCTTGCCGTTGCTGGCTGTGTCAGTGTGCCACCCACTCCGGAGTCACCTAGTGCAG”, for which the binding signal was 4050 fluorescence intensity (a.u.).

Regarding “TCCTCGTCGTTGTGTTGTCGCGCACGGCGCAGGATGTGCTCGGAGTCACCTAGTGCAG”, the binding signal was 4230 fluorescence intensity (a.u.).

For the sequence “ACCTTGAGTTTGAGTGCGATTCCTCCCTTCTTTCGGTCACCGGAGTCACCTAGTGCAG”, the binding signal was 21100 fluorescence intensity (a.u.).

Consider “TGAGCTTTGATGGTATGACTCGATTGTCAGAGTGGTCTGGCGGAGTCACCTAGTGCAG”, for which the binding signal is 3810 fluorescence intensity (a.u.).

Regarding “CACTGCAAGTGGTGGTGGTGTTTAGCCTTGTGGGCGCAGCCGGAGTCACCTAGTGCAG”, the binding signal was 3520 fluorescence intensity (a.u.).

As for “GATGGTGTTGAAGAGCAAAGTCATGTTAGTATTTCACTTCCGGAGTCACCTAGTGCAG”, the binding signal is 4700 fluorescence intensity (a.u.).

As to “ACTTCCGCCTTCGCCTCGCGCCACCGCGTCCACATCTGCCCGGAGTCACCTAGTGCAG”, the binding signal is 3450 fluorescence intensity (a.u.).
